According to PubChem BioAssay AID2685 (National Center for Advancing Translational Sciences (NCATS), 2010):
This is one part of the list. These are further read-outs of the screen, such as a control signal, another cell line or another target. No call is given for them. The list favours compounds with an active or inconclusive main result. The note in brackets gives the kind of curve behind each potency; many fits are weak.

Assay: qHTS Assay for Lipid Storage Modulators in Drosophila S3 Cells;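 for cell number change: cells counted by Cell Tracker Red CMTPX staining in the red channel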
Details: BODIPY lipid droplet fluorescence, 18-24 h; for cell number change: measured here: cell count max response, cells fed with added oleic acid
Outline: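 Laser-scanning cytometry quantifies lipid droplet accumulation (500–530 nm total intensity; droplet/cell object ratio) in oleic acid-fed (400 uM added) Drosophila S3 cells treated with a concentration series. 20 uM Triacsin C defined 100% inhibition.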

[1] = measured here: cell number channel AC50, cells fed with added oleic acid
[2] = measured here: lipid fluorescence (Fed channel) AC50, cells fed with added oleic acid

Row | Structure (SMILES) | AC50 [1] | AC50 [2] | cell number change [%]
1 | Cn1c(=O)c2c(nc(N3CCCCCC3)n2Cc2cccc3ccccc23)n(C)c1=O | 0.00461 µM [rising, full curve, poor fit] | – | –
2 | CSCCC(NC(=O)c1ccccc1Cl)C(=O)Nc1cccc(S(=O)(=O)N2CCCC2)c1 (configuration not stated) | – | 11.6 µM [falling, partial curve, poor fit] | –
3 | COc1ccc(CSc2nnnn2-c2ccc(O)cc2)cc1F | – | – | 28.3
4 | Cc1ccc(S(=O)(=O)N2CCN(C(=O)CC(C)n3cncn3)CC2)cc1 (configuration not stated) | – | – | 3.91
5 | COc1ccc(N2C(=O)CSC23CCC(C(C)(C)C)CC3)cc1 (configuration not stated) | 14.6 µM [rising, partial curve, poor fit] | – | 64.3
6 | O=C(NC1CC1)c1cc(-c2ccc(Br)cc2)nc2ccccc12 | 0.0651 µM [falling, full curve, poor fit] | – | -5.66
7 | CCOc1cc(S(=O)(=O)NC2CC(C)(C)NC(C)(C)C2)ccc1Cl | – | 0.291 µM [rising, partial curve, poor fit] | 12.8
8 | COC(=O)Nc1ccc(OCC(=O)N2CCOCC2)cc1 | 1.46 µM [falling, full curve, poor fit] | – | -66.7
9 | Cc1ccc(C(=O)N2CCCCC2)cc1NC1=C(Cl)C(=O)N(Cc2ccccc2)C1=O | – | 23.1 µM [falling, single point] | -4.82
10 | Cc1ccccc1C(=O)NC1CCN(Cc2nnnn2Cc2ccccc2)CC1 | 0.13 µM [rising, full curve, poor fit] | – | –
11 | O=C(NCCSCc1ccccc1)c1ccccc1 | 0.00461 µM [falling, full curve, poor fit] | 29.1 µM [rising, single point] | -22.5
12 | CCC(C)[C@H]1CNCCN1CCCc1cc(OC)c(OC)c(OC)c1 (some centres not stated) | – | 5.17 µM [rising, full curve] | -0.874
13 | CN(CC(=O)Nc1ccccc1C(=O)N1CCCC1)S(=O)(=O)c1ccc(Cl)cc1 | 3.26 µM [rising, single point] | – | –
14 | O=C(c1ccc2ccccc2n1)N(CCO)Cc1ccccc1 | – | 0.731 µM [falling, full curve, poor fit] | 1.65
15 | O=C(CSc1nnnn1-c1ccccc1)N1CCc2ccccc21 | – | 1.16 µM [rising, partial curve] | 3.72
16 | Cc1ccc(C(=O)Nc2ccc3c(c2)OCO3)cc1 | 0.517 µM [rising, single point] | 0.58 µM [rising, full curve] | –
17 | CCCn1c(N)c(C(=O)CSc2nnc(-c3ccco3)n2Cc2ccccc2)c(=O)[nH]c1=O | – | – | -1.43
18 | CC(C)(C)C(=O)NC(=S)N1CCOCC1 | – | 23.1 µM [falling, single point] | -4.72
19 | COc1cc(CNc2ccccc2SC)cc(OC)c1OC | – | – | 0.948
20 | COc1cccc(NC(=O)c2cc(=O)c3ccccc3o2)c1 | – | 2.59 µM [falling, single point] | -10.7
21 | O=C(C1=C(O)C(=O)N(CCc2ccccc2)C1c1cccnc1)c1ccco1 (configuration not stated) | – | 1.3 µM [rising, full curve, poor fit] | -15.9

Two entries picked at random from those above, as already listed:
Row | Structure (SMILES) | AC50 [1] | AC50 [2] | cell number change [%]
13 | CN(CC(=O)Nc1ccccc1C(=O)N1CCCC1)S(=O)(=O)c1ccc(Cl)cc1 | 3.26 µM [rising, single point] | – | –
2 | CSCCC(NC(=O)c1ccccc1Cl)C(=O)Nc1cccc(S(=O)(=O)N2CCCC2)c1 (configuration not stated) | – | 11.6 µM [falling, partial curve, poor fit] | –

Later entries

Row | Structure (SMILES) | AC50 [1] | AC50 [2] | cell number change [%]
22 | N#Cc1nc(Nc2cc(F)cc(F)c2)c2ncn(CC(F)F)c2n1 | – | – | -16
23 | O=C(O)C1CCCN1S(=O)(=O)c1ccc(Cl)c(Cl)c1 (configuration not stated) | 1.46 µM [falling, full curve, poor fit] | 2.31 µM [falling, full curve] | -35
24 | O=C(/C=C/c1ccc([N+](=O)[O-])cc1)NC1CC2CCC1C2 (configuration not stated) | – | 29.1 µM [rising, single point] | 17.9
25 | Cc1cc(C)c(S(=O)(=O)c2ccccc2)c(OC(=O)c2ccc(Cl)cc2Cl)n1 | – | – | -14.2
26 | O=S(=O)(NC1CCCCC1N1CCN(c2ccc(F)cc2)CC1)c1ccc(Cl)cc1 (configuration not stated) | – | 29.1 µM [rising, single point] | 23.5
27 | COC(=O)c1ccccc1NC(=O)C1CCN(c2ncnc3c2nc2n3CCCCC2)CC1 | – | 0.58 µM [rising, single point] | -16.2
28 | Cc1cc(C)c(C(=O)Cn2nc(C)c([N+](=O)[O-])c2C)cc1C | – | 6.51 µM [rising, partial curve, poor fit] | -0.366
29 | COc1ccc(Br)c(C(=O)Nc2cccc(Cl)c2Cl)c1 | – | 0.13 µM [falling, full curve, poor fit] | –
30 | O=C(CSc1nnnn1Cc1ccccc1)Nc1ccc2c(c1)OCCO2 | – | – | 2.11
31 | CC1CC(C)CN(S(=O)(=O)N2CCCC(C(=O)NCCc3ccccc3)C2)C1 (configuration not stated) | – | – | 21.1
32 | COCCN(C(=O)c1cc(Cl)nc2ccccc12)c1c(N)n(Cc2ccccc2)c(=O)[nH]c1=O | 0.0731 µM [rising, full curve, poor fit] | – | 4.89
33 | CN(CC(=O)Nc1cc(Cl)cc(Cl)c1)Cc1cccs1 | 0.517 µM [rising, full curve, poor fit] | – | 24.4
34 | Cc1ccc(/C=N/NC(=O)C2CCN(Cc3ccc(F)cc3Cl)CC2)o1 | 3.66 µM [falling, partial curve, poor fit] | 0.411 µM [falling, full curve, poor fit] | –
35 | CCc1cc(C)cc(OCCOc2ccccc2/C=N/NC(C)=O)c1 | – | – | -22.3
36 | COCCNC(=O)C(c1ccccc1C)N(CCOC)C(=O)Cn1nnc2ccccc21 (configuration not stated) | 29.1 µM [rising, single point] | 5.17 µM [rising, partial curve] | 64
37 | O=C(CCN1C(=O)[C@H]2CC=CC[C@H]2C1=O)NCc1nc(-c2ccc(Cl)cc2)no1 | – | 0.164 µM [rising, full curve, poor fit] | 2.99
38 | CC(CN1CCCCC1)OC(=O)c1ccc(Cl)cc1Cl (configuration not stated) | 23.1 µM [falling, partial curve] | 23.1 µM [falling, partial curve] | -214
39 | CCN(CC)CCOC(=O)c1ccc(NC(=O)CCCN2C(=O)/C(=C/c3cccs3)SC2=S)cc1 | – | – | -29.2
40 | CC(=O)Nc1ccc2nc(-c3cccs3)[nH]c2c1 | – | – | 3.88
41 | COc1ccc(CC(=O)OCC(=O)NC(=O)NC2CCCC2)cc1 | – | – | -5.45
42 | Oc1ccc(N2CCN(c3nnnn3-c3ccccc3)CC2)cc1 | 0.82 µM [rising, full curve] | 0.58 µM [rising, partial curve, poor fit] | -13.7

Row | Structure (SMILES) | AC50 [1] | AC50 [2] | cell number change [%]
43 | Cc1cc(NC(=O)CSc2nc3ccccc3cc2C#N)no1 | 3.66 µM [rising, full curve, poor fit] | – | 47.4
44 | O=C(Nc1nncs1)c1ccc(F)c(S(=O)(=O)N2CCCCC2)c1 | – | 29.1 µM [falling, single point] | -10.5
45 | O=C(CSc1nnc(NC(=O)c2ccc(S(=O)(=O)N3CCOCC3)cc2)s1)Nc1ccccc1C(F)(F)F | – | 0.58 µM [rising, single point] | -4.18
46 | C=CCN1C(=O)NC2(CCCCC2)C1=O | – | 9.2 µM [falling, partial curve] | -17.8
47 | O=C(O)c1ccc(N2CCN(Cc3ccc4c(c3)OCO4)CC2)c([N+](=O)[O-])c1 | – | 14.6 µM [rising, partial curve, poor fit] | 20.9
48 | CCOc1ccc(NCCC(=O)c2ccc3c(c2)OCO3)cc1 | – | – | -11.2
49 | CCOc1ccccc1OCCCC(=O)NNC(=O)c1nn(C)c(=O)c2ccccc12 | – | 0.0517 µM [rising, full curve, poor fit] | -28.4
50 | COCCCNC(=O)CCCn1c(=O)[nH]c2ccccc2c1=O | – | 0.731 µM [falling, full curve, poor fit] | 5.21
51 | COc1ccccc1NC(=O)COc1ccc(C(=O)NCc2ccccc2)cc1OC | 25.9 µM [falling, single point] | 29.1 µM [falling, single point] | -32.9
52 | C=CCn1c(N)c(C(=O)OCC(C)C)c2nc3ccccc3nc21 | – | 0.326 µM [rising, full curve, poor fit] | 6.63
53 | Cn1cnnc1SC(C(=O)Nc1cccc(C(F)(F)F)c1)c1ccccc1 (configuration not stated) | 0.58 µM [rising, full curve] | – | 60.2
54 | CCCN(Cc1nnc(-c2cccs2)o1)C(=O)CN1C(=O)NC2(CCCCC2)C1=O | – | – | 1.5
55 | CCOc1cc(C(=S)N2CCOCC2)ccc1OC(=O)c1cc(OC)c(OC)c(OC)c1 | 16.4 µM [falling, partial curve] | – | -32.3
56 | Cn1c(SCC(=O)Nc2ccc3c(c2)OCCO3)nnc1-c1ccccn1 | – | 0.231 µM [rising, full curve, poor fit] | 15.3
57 | COc1ccc(-n2ncc3c(NC(C)C)ncnc32)cc1 | – | – | 7.54
58 | O=C1COc2ccc(S(=O)(=O)NCc3ccccc3)cc2N1 | – | 16.4 µM [falling, partial curve, poor fit] | -4.35
59 | COc1ccc(S(=O)(=O)Nc2cccc(-c3ccc(N4CCCCCC4)nn3)c2)cc1OC | 5.17 µM [rising, single point] | – | –
60 | CC(C)NC(=O)COC(=O)/C=C/c1ccco1 | 0.58 µM [falling, full curve, poor fit] | 29.1 µM [falling, single point] | -10
61 | CCCS(=O)(=O)c1nc(S(=O)(=O)c2ccc(C)cc2)c(NCCN2CCOCC2)s1 | – | – | -3.45
62 | COc1cccc(NC(=O)C(NCC2CCCCC2)c2ccccc2)c1 (configuration not stated) | 23.1 µM [rising, single point] | 23.1 µM [rising, single point] | 94.5
63 | O=C(CSc1nnc(-c2cccs2)n1Cc1ccccc1)NCc1ccc2c(c1)OCO2 | 3.66 µM [rising, partial curve] | 16.4 µM [rising, partial curve] | –
